Most values lie at the floor of the assay. Slopes are relative: functional sequences can read slightly below zero.
Each substance was assayed on Saccharomyces cerevisiae PS128 hsf1 delta, HSF1(1-493) fusion (assay: growth estimate (transactivation domain function in HSF1 fusion, heat-shock survival) (a.u. (slope of normalised read count over time)); higher = stronger growth at 37°C, i.e. more transactivation activity). Conditions: library: random library.

| Substance | growth estimate |
| --- | --- |
| FSASLFAKSSQSTRLHSPTQ | < -0.25 |
| TICSFAVKTAPIALALS | < -0.25 |
| RVHVTDEARATDRD | < -0.25 |
| QRHASSRSQTWNIAVPNFAP | -0.246 |
| SRHFLSKLLTGGLTYGGHCA | < -0.25 |
| RNTVKIAEVSFRITFNPS | < -0.25 |
| APFGDGCVVLTFPGTACTRP | < -0.25 |
| ILCEFEGLPYGGNVLCVSIT | -0.248 |
| PTCLPSF | < -0.25 |
| NVHGQTSHTDPGFVSIWYLR | 0.0464 |
| LASNVAAALGEGANGKTSLI | < -0.25 |
| RPSRFVKTA | < -0.25 |
| DHIQIREGEGLGCEASRTVH | < -0.25 |
| YEVLNS | < -0.25 |
| RGAEDCRV | < -0.25 |
| KWGRPIYNRGKRPDRLRLAL | < -0.25 |
| VLGGTRTM | < -0.25 |
| LGTAPTVDVIFVTTPNQPVT | < -0.25 |
| STARPSKVSPMPSSGASFSL | < -0.25 |
| SRHLSGLLNSTYKCRNS | < -0.25 |
| DVVHASHPSPRGSLGQRINR | < -0.25 |

| Substance | growth estimate |
| --- | --- |
| QHGTRVRRGGLHV | < -0.25 |
| TGKDTRRLNPY | < -0.25 |
| GVDGAVESNAWCLHLGFWRE | < -0.25 |
| SQNGTGHCTSGGSRPLRCAA | < -0.25 |
| VSWWFTYAPSFLG | < -0.25 |
| RDGTSSSTRCCFSIVEIPYL | < -0.25 |
| IGFFHKLQYGS | < -0.25 |
| GGQL | < -0.25 |
| GIIETRLHVVHVAP | < -0.25 |
| KNHVACIPVCLLLLGDPDEA | < -0.25 |
| SRQ | < -0.25 |
| VRISTLSLQRSLNNAVP | < -0.25 |
| GSDLGIINETLLMVLCDAGY | < -0.25 |
| GWCVQKW | < -0.25 |
| KSKDSHK | < -0.25 |
| ACMGGLIRLGGLESRIRIRN | -0.221 |
| CLQERVLVLPMGADNHPPYP | < -0.25 |
| NCPYPPDDLSC | < -0.25 |
| SSLGG | < -0.25 |
| RQRL | < -0.25 |
| VGYGVRRT | < -0.25 |

| Substance | growth estimate |
| --- | --- |
| AESA | < -0.25 |
| VGNEAPQHSHINWRVLAS | < -0.25 |
| LVWCG | < -0.25 |
| TDAGCCPLKRSCQAGIGVVG | < -0.25 |
| YDKAVCRIGGRWCQWGPPYQ | < -0.25 |
| QDVQRRCRT | < -0.25 |
| ASKIGADGMIL | < -0.25 |
| VTMID | -0.231 |
| VIR | < -0.25 |
| QSVRWFILLSSVGSSCPSLR | < -0.25 |
| GTSGFYGTGGSEQGSVSVVN | < -0.25 |
| SGE | < -0.25 |
| LAVGPRVNDIIVVVIRHVQD | < -0.25 |
| GVSMPTVLIPP | < -0.25 |
| RVKTDTVLNSL | < -0.25 |
| QSG | < -0.25 |
| PEE | < -0.25 |
| DTKCVS | < -0.25 |
| KPDCQARLKW | < -0.25 |
| VYTSVSLNLIVLRHVERTK | < -0.25 |
| SRATGEETRRRPA | < -0.25 |

| Substance | growth estimate |
| --- | --- |
| RKLRRWRPIPWIGGCYVAIL | < -0.25 |
| VEAVFAGGTF | < -0.25 |
| AVARPDTLFIGSVTSRPIYC | < -0.25 |
| SSSSSGLGPGDWREVASSSA | < -0.25 |
| PVCARVWVNVSPQMGT | -0.112 |
| LGPLSEQFRG | < -0.25 |
| FEVGEVGAAPHGI | < -0.25 |
| NLTYSPDCLTCPM | < -0.25 |
| SHLMDRDRAVLQNALKTCNR | < -0.25 |
| YSDSATSLSGVEFVLVSHNA | < -0.25 |
| DSMDRGSVHTTLCFGCAMKS | -0.245 |
| NFGTFQL | < -0.25 |
| NTCEAGDTQLKPLPAQARGV | < -0.25 |
| VIGHR | < -0.25 |
| CNPRQHVWRIFLVDHCGLIS | < -0.25 |
| IVRDSWYV | < -0.25 |
| IHNLKGRGSLFPRV | < -0.253 |
| WDDIIAGDPLWVLSPITTPM | < -0.25 |
| RVFRCVLAVVIVPSSC | < -0.25 |

In a second layout: entries from further up.
NLTYSPDCLTCPM
  growth estimate: < -0.25
SHLMDRDRAVLQNALKTCNR
  growth estimate: < -0.25
YSDSATSLSGVEFVLVSHNA
  growth estimate: < -0.25
DSMDRGSVHTTLCFGCAMKS
  growth estimate: -0.245
